Results are given in words; binding and its absence hold for the method and conditions named. In cells and extracts the contact can be indirect. Some entries that bind do so weakly or less than the wild type.

The chains behind the UniProt entries cited, without tags or fusion partners.
UniProt Q9BR76: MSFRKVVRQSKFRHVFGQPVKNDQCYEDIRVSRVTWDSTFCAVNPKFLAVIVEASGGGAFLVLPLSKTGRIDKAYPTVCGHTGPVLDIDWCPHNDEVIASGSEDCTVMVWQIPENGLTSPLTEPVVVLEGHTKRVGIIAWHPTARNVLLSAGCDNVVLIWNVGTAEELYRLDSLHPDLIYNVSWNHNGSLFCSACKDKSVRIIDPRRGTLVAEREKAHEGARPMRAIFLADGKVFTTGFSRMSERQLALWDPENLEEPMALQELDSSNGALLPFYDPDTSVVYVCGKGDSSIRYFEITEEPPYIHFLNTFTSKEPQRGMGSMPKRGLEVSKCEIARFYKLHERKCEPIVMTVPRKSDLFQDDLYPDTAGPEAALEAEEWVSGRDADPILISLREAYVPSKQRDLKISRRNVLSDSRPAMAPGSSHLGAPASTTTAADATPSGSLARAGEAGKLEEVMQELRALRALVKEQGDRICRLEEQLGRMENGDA
UniProt P31146: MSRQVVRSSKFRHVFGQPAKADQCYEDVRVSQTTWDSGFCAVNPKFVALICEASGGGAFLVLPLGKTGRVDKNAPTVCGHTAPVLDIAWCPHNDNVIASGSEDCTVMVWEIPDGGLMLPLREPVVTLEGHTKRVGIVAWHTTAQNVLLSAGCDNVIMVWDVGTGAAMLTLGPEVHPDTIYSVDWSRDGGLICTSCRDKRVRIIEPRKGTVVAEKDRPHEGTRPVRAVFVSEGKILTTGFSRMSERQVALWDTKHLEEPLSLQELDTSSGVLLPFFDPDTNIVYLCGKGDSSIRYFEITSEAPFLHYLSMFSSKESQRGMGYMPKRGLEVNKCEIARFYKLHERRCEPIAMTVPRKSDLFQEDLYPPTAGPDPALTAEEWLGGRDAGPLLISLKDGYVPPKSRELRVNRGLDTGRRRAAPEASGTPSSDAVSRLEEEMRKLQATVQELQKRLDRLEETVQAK
UniProt Q9ULV4: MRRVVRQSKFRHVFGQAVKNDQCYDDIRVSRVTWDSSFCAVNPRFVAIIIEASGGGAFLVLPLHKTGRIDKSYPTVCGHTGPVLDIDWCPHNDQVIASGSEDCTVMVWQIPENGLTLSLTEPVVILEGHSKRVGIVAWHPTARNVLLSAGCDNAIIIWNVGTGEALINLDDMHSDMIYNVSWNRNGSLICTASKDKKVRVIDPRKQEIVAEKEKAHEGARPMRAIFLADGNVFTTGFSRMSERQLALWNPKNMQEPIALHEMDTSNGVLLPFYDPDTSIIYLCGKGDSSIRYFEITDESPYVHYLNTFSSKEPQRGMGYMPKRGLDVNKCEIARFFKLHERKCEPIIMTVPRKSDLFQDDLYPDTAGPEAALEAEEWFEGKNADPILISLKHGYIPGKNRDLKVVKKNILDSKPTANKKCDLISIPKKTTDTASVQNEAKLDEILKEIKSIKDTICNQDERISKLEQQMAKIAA
UniProt P63092: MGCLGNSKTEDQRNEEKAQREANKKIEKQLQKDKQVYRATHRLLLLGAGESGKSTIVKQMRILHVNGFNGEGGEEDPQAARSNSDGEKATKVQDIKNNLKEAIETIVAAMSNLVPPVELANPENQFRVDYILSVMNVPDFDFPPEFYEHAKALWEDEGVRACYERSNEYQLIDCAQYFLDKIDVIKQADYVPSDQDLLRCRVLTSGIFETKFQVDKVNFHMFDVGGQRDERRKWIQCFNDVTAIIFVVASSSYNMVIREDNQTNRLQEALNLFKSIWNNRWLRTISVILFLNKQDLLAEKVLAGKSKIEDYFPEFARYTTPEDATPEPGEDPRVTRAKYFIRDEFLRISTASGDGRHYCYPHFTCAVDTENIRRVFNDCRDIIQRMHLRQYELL

These results are taken from publication PMC7497283.

Assay [1] has as its target Coro2 (human (endogenous in platelets)) (UniProt Q9BR76). The experiment in a line: co-IP; human platelet lysates (2% n-dodecyl β-D-maltoside lysis buffer, 20 mM HEPES, 30 mM NaCl, pH 7.4) incubated overnight at 4°C with 1 μg Coro1- or Coro2-specific antibody or same species control IgG, protein G Sepharose, washes with TBS-T, Western blot.
Assay [2] addresses Coro1 (human (endogenous in platelets)) (UniProt P31146). The assay is described as above.

Regarding Coro3 (from UniProt Q9ULV4 1-474), the binding result in assay [1] is on record as “binds”.

Consider “Gαs subunit of heterotrimeric G proteins (from UniProt P63092 1-394)”, for which the binding result in assay [2] and in assay [1] was “binds” in each case.
